Experimental data from patent US7888385B2, “Airway alkalinization as therapy for airway diseases” (priority 2002, dated 2011).
For at least one compound, name, drawing or mass did not settle the structure.

Assay: Practical applications: asthma patient cases
Assay type: in vivo, human
Excerpt: Practical Applications of the Present Invention

Row | SMILES | asthma symptoms (levalbuterol and budesonide together, 0.5 mg by nebulizer four times/day) | asthma symptoms (10 mg by nebulizer 3 times/day)
1 | CCCC1O[C@@H]2C[C@H]3[C@@H]4CCC5=CC(=O)C=C[C@]5(C)[C@H]4[C@@H](O)C[C@]3(C)[C@]2(C(=O)CO)O1 (some centres unmarked) [budesonide] | without relief of their symptoms | –
2 | CCN(CC)C(=S)SSC(=S)N(CC)CC [disulfiram] | – | symptoms resolve
